Experiment [1] has as its target T1, APMA-activated MMP-9 (human, UniProt P14780 94-707). The experiment is described as follows: phage attachment assay on MMP-9-coated wells.
Experiment [2] concerns the target T1, APMA-activated MMP-9. The experiment is described as follows: phage panning on APMA-activated MMP-9 coated on wells; binding of each clone verified by attachment assay (Eu-labelled anti-M13).

Amino acid sequences for entries named in this document (tags omitted). A change or cut given only in a name is not applied to a line headed by its entry.
UniProt P14780: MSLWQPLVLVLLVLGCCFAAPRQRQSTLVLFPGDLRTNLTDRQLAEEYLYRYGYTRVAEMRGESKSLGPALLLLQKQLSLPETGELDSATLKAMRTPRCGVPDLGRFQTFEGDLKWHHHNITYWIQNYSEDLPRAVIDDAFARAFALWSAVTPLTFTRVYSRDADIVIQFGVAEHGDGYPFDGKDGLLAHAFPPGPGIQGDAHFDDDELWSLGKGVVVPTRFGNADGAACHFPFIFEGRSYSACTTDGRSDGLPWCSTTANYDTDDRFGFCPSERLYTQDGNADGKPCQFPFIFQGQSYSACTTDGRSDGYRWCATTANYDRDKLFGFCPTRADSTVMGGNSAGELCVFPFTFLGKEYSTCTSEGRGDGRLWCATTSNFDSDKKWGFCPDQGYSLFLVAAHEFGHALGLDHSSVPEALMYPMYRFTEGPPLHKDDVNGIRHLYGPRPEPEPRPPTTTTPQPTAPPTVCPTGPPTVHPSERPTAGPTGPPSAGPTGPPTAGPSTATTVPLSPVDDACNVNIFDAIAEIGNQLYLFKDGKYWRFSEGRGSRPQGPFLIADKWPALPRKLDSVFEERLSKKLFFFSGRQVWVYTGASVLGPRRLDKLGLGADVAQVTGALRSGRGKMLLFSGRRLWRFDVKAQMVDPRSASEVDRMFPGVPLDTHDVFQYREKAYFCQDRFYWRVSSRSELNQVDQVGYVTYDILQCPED

The record followed here is patent US6624144B1, “Matrix metalloproteinase inhibitors and down-regulators” (CTT Cancer Targeting Technologies Oy, priority 1998, dated 2003).

No constants are given. Whether binding was seen depends on the method and setting. Binding calls can cover weak binding; strength is not graded here.

On to CTTHWGFTLC (peptide, not shown: large carriers), for which the binding result with APMA-activated MMP-9 [1] and with APMA-activated MMP-9 [2] was “binds” throughout.

B1: phage clone displaying CSLHWGFWWC (from the CX9 library) (peptide)
peptide: CSLHWGFWWC
notes: not shown: phage coat protein to which the peptide is fused
Consider B1, for which the binding entry with APMA-activated MMP-9 [1] and in the experiment with APMA-activated MMP-9 [2] was “binds” each time.
CRRHWGFEFC (peptide, not shown: large carriers): the binding entry with APMA-activated MMP-9 [1] and in the experiment with APMA-activated MMP-9 [2] was “binds” throughout.
